{"source": "PubChem BioAssay AID1259308 (NCATS, 2017)", "screen": "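Genes whose loss raises luciferase production in HEK293 cells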 (primary screen)", "cells": "human HEK293 embryonic kidney cells stably expressing firefly luciferase (HEK-CMV-Luc2-Hygro)", "reagents": "single siRNA against human genes, 0.8 pmol siRNA per well", "duration": "72 h", "measurement": "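Luciferase light (ONE-Glo) measured on one replicate plate set and viability (CellTiter-Glo) on the other, scaled to a negative control siRNA, with robust z-scores and luciferase per cell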", "direction": "total luciferase, z-score: higher = more reporter protein produced", "call rule": "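An siRNA counts as active if its total luciferase robust z-score exceeds 3; genes with two or more such siRNAs out of three were retested with fresh siRNAs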", "meaning of the calls": "active = raised luciferase; inactive = no rise", "note": "The whole screen tested about 59,000 reagents; this is an unselected part. About 1,510 of all reagents (2.6%) count as active. 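Calls use total luciferase alone and ignore viability, so some active siRNAs may act by altering cell number.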 The numbers tell different reagents against one gene apart. Not all columns of the deposit are shown."}
{"gene": "BPTF", "reagent no.": 1, "total luciferase, z-score": 1.98, "activity call": "inactive"}
{"gene": "BPTF", "reagent no.": 2, "total luciferase, z-score": -1.26, "activity call": "inactive"}
{"gene": "BPTF", "reagent no.": 3, "total luciferase, z-score": 1.63, "activity call": "inactive"}
{"gene": "RPL18", "reagent no.": 1, "total luciferase, z-score": -2.91, "activity call": "inactive"}
{"gene": "RPL18", "reagent no.": 2, "total luciferase, z-score": -2.78, "activity call": "inactive"}
{"gene": "RPL18", "reagent no.": 3, "total luciferase, z-score": -2.77, "activity call": "inactive"}
{"gene": "FKBP2", "reagent no.": 1, "total luciferase, z-score": -0.0354, "activity call": "inactive"}
{"gene": "FKBP2", "reagent no.": 2, "total luciferase, z-score": -0.325, "activity call": "inactive"}
{"gene": "FKBP2", "reagent no.": 3, "total luciferase, z-score": 0.566, "activity call": "inactive"}
{"gene": "RPLP2", "reagent no.": 1, "total luciferase, z-score": -2.76, "activity call": "inactive"}
{"gene": "RPLP2", "reagent no.": 2, "total luciferase, z-score": -2.51, "activity call": "inactive"}
{"gene": "RPLP2", "reagent no.": 3, "total luciferase, z-score": -2.63, "activity call": "inactive"}
{"gene": "RELT", "reagent no.": 1, "total luciferase, z-score": 0.319, "activity call": "inactive"}
{"gene": "RELT", "reagent no.": 2, "total luciferase, z-score": 0.842, "activity call": "inactive"}
{"gene": "RELT", "reagent no.": 3, "total luciferase, z-score": -0.268, "activity call": "inactive"}
{"gene": "DIP2B", "reagent no.": 1, "total luciferase, z-score": 0.682, "activity call": "inactive"}
{"gene": "DIP2B", "reagent no.": 2, "total luciferase, z-score": 0.824, "activity call": "inactive"}
{"gene": "DIP2B", "reagent no.": 3, "total luciferase, z-score": -0.0403, "activity call": "inactive"}
{"gene": "ZNF17", "reagent no.": 1, "total luciferase, z-score": -0.203, "activity call": "inactive"}
{"gene": "ZNF17", "reagent no.": 2, "total luciferase, z-score": -0.0255, "activity call": "inactive"}
{"gene": "ZNF17", "reagent no.": 3, "total luciferase, z-score": -0.406, "activity call": "inactive"}

A stretch from the list above, as a working copy:
{"gene": "FKBP2", "reagent no.": 1, "total luciferase, z-score": -0.0354, "activity call": "inactive"}
{"gene": "FKBP2", "reagent no.": 2, "total luciferase, z-score": -0.325, "activity call": "inactive"}
{"gene": "FKBP2", "reagent no.": 3, "total luciferase, z-score": 0.566, "activity call": "inactive"}
